These are yes or no findings as the source states them, for the method shown. In cells and extracts the contact can be indirect. Some entries that bind do so weakly or less than the wild type. For some of these results: Tags and fused reporters may be left off the sequences shown.
How the values were obtained:
Assay in all cases: co-IP
[1] = target: T1, HA-ALKBH2 (H1299) (human) (UniProt Q6NS38)
T1 sequence: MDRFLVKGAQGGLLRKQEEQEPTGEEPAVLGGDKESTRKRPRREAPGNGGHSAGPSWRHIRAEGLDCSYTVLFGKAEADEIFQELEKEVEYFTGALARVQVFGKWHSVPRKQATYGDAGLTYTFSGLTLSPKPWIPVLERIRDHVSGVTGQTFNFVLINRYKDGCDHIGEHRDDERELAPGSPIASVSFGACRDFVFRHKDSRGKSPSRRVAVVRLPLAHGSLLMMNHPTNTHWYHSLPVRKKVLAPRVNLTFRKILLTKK

The chains behind the UniProt entries cited, without tags or fusion partners.
UniProt Q13263: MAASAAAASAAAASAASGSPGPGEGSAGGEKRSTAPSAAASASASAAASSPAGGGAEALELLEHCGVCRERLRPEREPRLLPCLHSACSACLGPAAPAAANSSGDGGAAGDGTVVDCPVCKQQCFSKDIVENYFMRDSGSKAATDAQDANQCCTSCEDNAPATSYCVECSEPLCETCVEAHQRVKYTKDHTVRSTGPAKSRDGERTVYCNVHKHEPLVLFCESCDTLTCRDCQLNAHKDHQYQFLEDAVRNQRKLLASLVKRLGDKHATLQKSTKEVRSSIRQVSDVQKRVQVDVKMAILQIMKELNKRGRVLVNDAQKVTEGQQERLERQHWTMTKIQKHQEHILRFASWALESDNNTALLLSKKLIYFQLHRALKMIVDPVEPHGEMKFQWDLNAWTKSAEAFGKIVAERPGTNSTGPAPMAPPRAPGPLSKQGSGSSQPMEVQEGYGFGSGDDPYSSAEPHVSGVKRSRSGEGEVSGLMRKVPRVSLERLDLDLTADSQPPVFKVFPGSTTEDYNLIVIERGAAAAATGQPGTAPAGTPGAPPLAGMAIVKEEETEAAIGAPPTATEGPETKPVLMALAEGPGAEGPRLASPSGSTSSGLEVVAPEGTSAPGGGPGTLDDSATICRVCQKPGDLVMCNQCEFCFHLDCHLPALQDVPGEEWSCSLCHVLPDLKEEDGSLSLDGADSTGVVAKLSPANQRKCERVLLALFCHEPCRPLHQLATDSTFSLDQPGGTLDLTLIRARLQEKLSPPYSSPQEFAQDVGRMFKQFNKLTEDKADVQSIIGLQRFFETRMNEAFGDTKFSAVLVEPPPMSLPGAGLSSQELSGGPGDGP
UniProt P43360: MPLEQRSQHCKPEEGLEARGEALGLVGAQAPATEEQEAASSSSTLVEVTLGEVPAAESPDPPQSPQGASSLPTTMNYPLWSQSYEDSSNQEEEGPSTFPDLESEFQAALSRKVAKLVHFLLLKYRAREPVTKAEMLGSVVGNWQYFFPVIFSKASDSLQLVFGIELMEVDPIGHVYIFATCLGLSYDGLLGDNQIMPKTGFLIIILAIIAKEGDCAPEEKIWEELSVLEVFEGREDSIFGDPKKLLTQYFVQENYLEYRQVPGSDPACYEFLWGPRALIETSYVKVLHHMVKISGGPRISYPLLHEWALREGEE

[2] = target: T2, Flag-ALKBH2 (HEK293T) (human) (UniProt Q6NS38)
T2 sequence: T1 sequence

[3] = target: Flag-TRIM28 (H1299) (human) (UniProt Q13263)
[4] = target: Flag-TRIM28 (HEK293T) (human) (UniProt Q13263)

endogenous TRIM28 (H1299) (from UniProt Q13263 1-835)
binding [1]: binds

Myc-MAGEA6 (from UniProt P43360 1-314)
binding [2]: binds

B1: HA-ALKBH2 (H1299) (protein, UniProt Q6NS38 1-261)
chain: T1 sequence
binding [3]: binds

B2: endogenous TRIM24 (HEK293T) (protein, UniProt O15164 1-1050)
chain: MEVAVEKAVAAAAAASAAASGGPSAAPSGENEAESRQGPDSERGGEAARLNLLDTCAVCHQNIQSRAPKLLPCLHSFCQRCLPAPQRYLMLPAPMLGSAETPPPVPAPGSPVSGSSPFATQVGVIRCPVCSQECAERHIIDNFFVKDTTEVPSSTVEKSNQVCTSCEDNAEANGFCVECVEWLCKTCIRAHQRVKFTKDHTVRQKEEVSPEAVGVTSQRPVFCPFHKKEQLKLYCETCDKLTCRDCQLLEHKEHRYQFIEEAFQNQKVIIDTLITKLMEKTKYIKFTGNQIQNRIIEVNQNQKQVEQDIKVAIFTLMVEINKKGKALLHQLESLAKDHRMKLMQQQQEVAGLSKQLEHVMHFSKWAVSSGSSTALLYSKRLITYRLRHLLRARCDASPVTNNTIQFHCDPSFWAQNIINLGSLVIEDKESQPQMPKQNPVVEQNSQPPSGLSSNQLSKFPTQISLAQLRLQHMQQQVMAQRQQVQRRPAPVGLPNPRMQGPIQQPSISHQQPPPRLINFQNHSPKPNGPVLPPHPQQLRYPPNQNIPRQAIKPNPLQMAFLAQQAIKQWQISSGQGTPSTTNSTSSTPSSPTITSAAGYDGKAFGSPMIDLSSPVGGSYNLPSLPDIDCSSTIMLDNIVRKDTNIDHGQPRPPSNRTVQSPNSSVPSPGLAGPVTMTSVHPPIRSPSASSVGSRGSSGSSSKPAGADSTHKVPVVMLEPIRIKQENSGPPENYDFPVVIVKQESDEESRPQNANYPRSILTSLLLNSSQSSTSEETVLRSDAPDSTGDQPGLHQDNSSNGKSEWLDPSQKSPLHVGETRKEDDPNEDWCAVCQNGGELLCCEKCPKVFHLSCHVPTLTNFPSGEWICTFCRDLSKPEVEYDCDAPSHNSEKKKTEGLVKLTPIDKRKCERLLLFLYCHEMSLAFQDPVPLTVPDYYKIIKNPMDLSTIKKRLQEDYSMYSKPEDFVADFRLIFQNCAEFNEPDSEVANAGIKLENYFEELLKNLYPEKRFPKPEFRNESEDNKFSDDSDDDFVQPRKKRLKSIEERQLLK
binding [4]: binds

— article doi:10.1101/2025.11.21.689678 (bioRxiv, 2025)
